Source: PubChem BioAssay AID1508597 (Cure First, 2020)
Test: 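Genes whose silencing sensitises or protects ovarian cancer cells against rucaparib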 (primary screen). Cell system: human ovarian carcinoma lines grown from tumours: OCI-P5x (papillary serous) and OCI-C5x (clear cell). Knock-down reagent: siRNA pool against human genes, 1.25 pmol siRNA per well. Timing: 72 h or 96 h, depending on the cell culture. Conditions: rucaparib 20 µM (about IC30) or vehicle, present until read-out. Rucaparib or vehicle: Rucaparib. Cell line: OCI-P5x (serous). Read-out: 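ATP luminescence measured at 72 or 96 h according to the culture, then normalised and expressed as percent viability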. Scale: viability, normalised: higher = more viable cells remaining. Active means: 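a well counts as a hit if its normalised viability is under 80 percent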. Meaning of the calls: active = viability under 80%; inactive = viability 80% or more.
Shown is a random part of the about 2,100 reagents, in one setting of the screen. 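Calls flag viability under 80% in either arm, not effects specific to rucaparib; the reference for percent is not stated.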 Entries without a mark were called inactive. Not stated in the record: the 100% reference.

The first 2 entries, ahead of the listing:
| target | technical replicate | viability, normalised (%) |
| --- | --- | --- |
| TIPARP (TCDD inducible poly(ADP-ribose) polymerase) | 1 | 60.4 (active) |
| TIPARP (TCDD inducible poly(ADP-ribose) polymerase) | 2 | 56.4 (active) |

The listing, repeating the preview:
| target | technical replicate | viability, normalised (%) |
| --- | --- | --- |
| TIPARP (TCDD inducible poly(ADP-ribose) polymerase) | 1 | 60.4 (active) |
| TIPARP (TCDD inducible poly(ADP-ribose) polymerase) | 2 | 56.4 (active) |
| TIPARP (TCDD inducible poly(ADP-ribose) polymerase) | 3 | 61.5 (active) |
| RPS6KA1 (ribosomal protein S6 kinase A1) | 1 | 74.4 (active) |
| RPS6KA1 (ribosomal protein S6 kinase A1) | 2 | 67.1 (active) |
| RPS6KA1 (ribosomal protein S6 kinase A1) | 3 | 77.7 (active) |
| TRMT6 (tRNA methyltransferase 6 non-catalytic subunit) | 1 | 95.8 |
| TRMT6 (tRNA methyltransferase 6 non-catalytic subunit) | 2 | 82.2 |
| TRMT6 (tRNA methyltransferase 6 non-catalytic subunit) | 3 | 80.7 |
| TSSK4 (testis specific serine kinase 4) | 1 | 74.1 (active) |
| TSSK4 (testis specific serine kinase 4) | 2 | 83.5 |
| TSSK4 (testis specific serine kinase 4) | 3 | 95.7 |
| NLGN2 (neuroligin 2) | 1 | 51 (active) |
| NLGN2 (neuroligin 2) | 2 | 47.9 (active) |
| NLGN2 (neuroligin 2) | 3 | 46.7 (active) |
| ZRANB3 (zinc finger RANBP2-type containing 3) | 1 | 91.9 |
| ZRANB3 (zinc finger RANBP2-type containing 3) | 2 | 60.5 (active) |
| ZRANB3 (zinc finger RANBP2-type containing 3) | 3 | 81.2 |
| EPHA3 (EPH receptor A3) | 1 | 79 (active) |
| EPHA3 (EPH receptor A3) | 2 | 66.4 (active) |
| EPHA3 (EPH receptor A3) | 3 | 76.3 (active) |
| TGM3 (transglutaminase 3) | 1 | 64.3 (active) |
| TGM3 (transglutaminase 3) | 2 | 55.8 (active) |
| TGM3 (transglutaminase 3) | 3 | 58.7 (active) |
| DDR2 (discoidin domain receptor tyrosine kinase 2) | 1 | 123 |
| DDR2 (discoidin domain receptor tyrosine kinase 2) | 2 | 97.6 |
| DDR2 (discoidin domain receptor tyrosine kinase 2) | 3 | 124 |
| MYOCD (myocardin) | 1 | 33.6 (active) |
| MYOCD (myocardin) | 2 | 55.1 (active) |
| MYOCD (myocardin) | 3 | 50.7 (active) |
| TNKS (tankyrase) | 1 | 97.6 |
| TNKS (tankyrase) | 2 | 108 |
| TNKS (tankyrase) | 3 | 127 |
| NIN (ninein) | 1 | 42.7 (active) |
| NIN (ninein) | 2 | 24.6 (active) |
| NIN (ninein) | 3 | 43.7 (active) |
| SUPT7L (SPT7 like, STAGA complex subunit gamma) | 1 | 53.9 (active) |
| SUPT7L (SPT7 like, STAGA complex subunit gamma) | 2 | 52.3 (active) |
| SUPT7L (SPT7 like, STAGA complex subunit gamma) | 3 | 55.7 (active) |
